Data taken from PubChem BioAssay AID2685 (National Center for Advancing Translational Sciences (NCATS), 2010).
The other results are listed elsewhere or left out. The main result of the screen is listed elsewhere. These columns were measured beside it and carry no call. The list favours compounds with an active or inconclusive main result. Potencies come from curve fits of mixed quality, noted in brackets.

Assay: qHTS Assay for Lipid Storage Modulators in Drosophila S3 Cells;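 on cell number change: cells counted by Cell Tracker Red CMTPX staining in the red channel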
Settings: BODIPY lipid droplet fluorescence, 18-24 h; for cell number change: measured here: cell count max response, cells fed with added oleic acid
In short: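 Drosophila S3 cells got compounds at several concentrations plus oleic acid (400 uM solution). Laser-scanning cytometry with 488 nm excitation read lipid droplets at 500-530 nm and cells at 575-640 nm. Percent activity was relative to 20 uM Triacsin C.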

[1] = measured here: cell number channel AC50, cells fed with added oleic acid
[2] = measured here: lipid fluorescence (Fed channel) AC50, cells fed with added oleic acid

| Compound | cell number change [%] | AC50 [1] | AC50 [2] |
| --- | --- | --- | --- |
| N#C/C(=C\c1ccc(F)cc1)C(=O)NC1CCS(=O)(=O)C1 (centres undefined) | -24.4 | 0.00517 µM [falling, full curve, poor fit] |  |
| O=C(COC(=O)c1nc(Cl)ccc1Cl)NC1CCCCC1 | -25.2 |  | 29.1 µM [falling, single point] |
| Cc1ccc(S(=O)(=O)N2CCC(C(=O)NCCCN3CCCCCC3)CC2)cc1 | -32.8 | 0.00517 µM [falling, full curve, poor fit] | 14.6 µM [falling, partial curve, poor fit] |
| COc1ccccc1Oc1nc2c(c(=O)n(Cc3ccccc3F)c(=O)n2C)n1C | -2.9 |  |  |
| O=C(N/C(=C/c1ccccc1F)C(=O)N1CCCCC1)c1ccccc1 | -11.4 |  | 29.1 µM [rising, partial curve, poor fit] |
| CCn1c(-c2ccc(OC)c(OC)c2)n[nH]c1=S | -2.98 |  | 14.6 µM [rising, partial curve, poor fit] |
| O=C(c1ccc(F)c(S(=O)(=O)N2CCOCC2)c1)N1CCN(c2ncccn2)CC1 | 3.71 |  | 2.06 µM [rising, partial curve, poor fit] |
| COc1ccc2nc(N/C(N)=N/C(=S)Nc3c(C)cccc3C)nc(C)c2c1 | -31 | 29.1 µM [falling, single point] | 29.1 µM [falling, single point] |
| COC(=O)N/N=C/c1cc(N=Nc2ccccc2Cl)ccc1O | -6.9 |  | 0.116 µM [falling, full curve, poor fit] |
| Cc1ccsc1C(=O)N1CCN(C(=O)c2ccco2)CC1 | -22 |  | 32.6 µM [falling, partial curve, poor fit] |
| COc1ccc(-c2[nH]ncc2/C=C(/C#N)C(=O)NC2CCCCCC2)cc1 | -38.3 | 29.1 µM [falling, single point] |  |
| O=C(OCC(=O)N1CCCC1)c1ccccc1C(=O)c1ccccc1 | 23.4 | 0.731 µM [falling, single point] | 0.731 µM [falling, partial curve] |
| CCN(CC)CCCNC(=S)N(Cc1ccco1)Cc1cc2cc3c(cc2[nH]c1=O)OCCO3 | 77 | 3.66 µM [rising, full curve, poor fit] | 6.51 µM [rising, partial curve] |
| COCCn1c(COc2ccc(Cl)cc2)nnc1SCC(N)=O | -158 | 25.9 µM [falling, partial curve] | 20.6 µM [falling, partial curve] |
| COc1ccc(C)cc1N(C)C(=O)c1coc(=O)c2ccccc12 | -0.212 |  | 29.1 µM [rising, single point] |

Nothing new here: an excerpt of the list.

| Compound | cell number change [%] | AC50 [1] | AC50 [2] |
| --- | --- | --- | --- |
| COc1ccc2nc(N/C(N)=N/C(=S)Nc3c(C)cccc3C)nc(C)c2c1 | -31 | 29.1 µM [falling, single point] | 29.1 µM [falling, single point] |
| COC(=O)N/N=C/c1cc(N=Nc2ccccc2Cl)ccc1O | -6.9 |  | 0.116 µM [falling, full curve, poor fit] |
